For experiment [1], the system named is ReNCell VM. The experiment is described as follows: neuronal differentiation score (DCX+ cell fraction vs untreated, manual image score) (score (-3 to 3)); higher = more neuronal differentiation. The following applies: 2 uM, 2 weeks.
Experiment [2] relates to ReNCell VM. The experiment is described as follows: dopaminergic neuron differentiation score (TH+ cell fraction vs untreated, manual image score) (score (0 to 3)); higher = more TH+ dopaminergic neuron differentiation. The following applies: 2 uM, 4 weeks, BDNF 10 ng/ml + GDNF 10 ng/ml.

Where a name gives a salt, the structure may show the parent alone. This is one part of the list. Single values are uncertain here, since repeats match poorly.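 Human fetal ventral-midbrain neural progenitor line ReNCell VM, differentiated without mitogens. Images stained for doublecortin (early neurons) or tyrosine hydroxylase (dopaminergic neurons) were scored by blinded raters against untreated wells (0 = no change). Repeats and both raters were averaged, and compounds averaging 2 or higher were picked as hits for retesting.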

With `COc1cc(O)cc(OC)c1OC`, in experiment [1] (library: Spectrum), the neuronal differentiation score was inactive: 0. In experiment [2] (library: Spectrum), the “dopaminergic neuron differentiation score” value was inactive: 1.

Turning to `CC1=C(/C=C/C(C)=C/C=C/C(C)=C/C(=O)O)C(C)(C)CCC1`, the neuronal differentiation score in experiment [1] (library: Spectrum) was inactive: -1. In experiment [2] (library: Spectrum), the “dopaminergic neuron differentiation score” value was inactive: 0.

Regarding `CN(N=O)C(=O)N[C@@H](C=O)[C@@H](O)[C@H](O)[C@H](O)CO` [Streptozotocin], the neuronal differentiation score in experiment [1] (library: Prestwick) is inactive: 0. The “dopaminergic neuron differentiation score” value in experiment [2] (library: Prestwick) is inactive: 0.

Regarding `O=c1[nH]c(=O)n([C@H]2C[C@H](O)[C@@H](CO)O2)cc1F`, in experiment [1] (library: Spectrum), the neuronal differentiation score is inactive: 0. Besides, the “dopaminergic neuron differentiation score” value in experiment [2] (library: Spectrum) is inactive: 0.

For `COc1cc(C)c(/C=C/C(C)=C/C=C/C(C)=C/C(=O)O)c(C)c1C` [Acitretin], the neuronal differentiation score in experiment [1] (library: Prestwick) is inactive: 0. In experiment [2] (library: Prestwick), the “dopaminergic neuron differentiation score” value was inactive: 0.

On to `O=C(c1ccc(F)cc1)C1CCN(CCn2c(=O)[nH]c3ccccc3c2=O)CC1` [Ketanserin tartrate hydrate], for which, in experiment [1] (library: Prestwick), the neuronal differentiation score is inactive: 0. Further, the “dopaminergic neuron differentiation score” value in experiment [2] (library: Prestwick) was inactive: 0.

Take `CC(C)(C(=O)c1cccnc1)c1cccnc1`: in experiment [1] (library: Spectrum), the neuronal differentiation score is inactive: 0. The “dopaminergic neuron differentiation score” value in experiment [2] (library: Spectrum) is inactive: 0.

`O=C(O)c1cc(-c2ccc(F)cc2F)ccc1O`: the neuronal differentiation score in experiment [1] (library: Spectrum) was inactive: 0. In addition, in experiment [2] (library: Spectrum), the “dopaminergic neuron differentiation score” value is inactive: 0.

Consider `CC1(C)[C@H](C(=O)O)N2C(=O)C[C@H]2S1(=O)=O` [Sulbactam], for which the neuronal differentiation score in experiment [1] (library: Prestwick) was inactive: 0. Further, the “dopaminergic neuron differentiation score” value in experiment [2] (library: Prestwick) is inactive: 0.

As for `NC(=O)c1cn(Cc2c(F)cccc2F)nn1` [Rufinamide], the neuronal differentiation score in experiment [1] (library: LOPAC) was inactive: 0. For the same molecule, the “dopaminergic neuron differentiation score” value in experiment [2] (library: LOPAC) was inactive: 0.

In the case of `CN1Cc2c(N)cccc2C(c2ccccc2)C1` (stereo unspecified), the neuronal differentiation score in experiment [1] (library: Spectrum) is inactive: 0. Moreover, the “dopaminergic neuron differentiation score” value in experiment [2] (library: Spectrum) was inactive: 0.

As to `CC(C)(C)CC(C)(C)c1ccc(O)c(Cc2ccc(Cl)cc2Cl)c1`, in experiment [1] (library: Spectrum), the neuronal differentiation score is inactive: 0. Besides, in experiment [2] (library: Spectrum), the “dopaminergic neuron differentiation score” value is inactive: 0.

As to `CSC(=N)N` [S-Methylisothiourea hemisulfate], the neuronal differentiation score in experiment [1] (library: LOPAC) was inactive: 0. Further, in experiment [2] (library: LOPAC), the “dopaminergic neuron differentiation score” value is inactive: 0.

In the case of `Nc1nc(N)c2nc(CNc3ccc(C(=O)N[C@@H](CCC(=O)O)C(=O)O)cc3)cnc2n1` [Aminopterin], the neuronal differentiation score in experiment [1] (library: LOPAC) was inactive: 0. For the same molecule, the “dopaminergic neuron differentiation score” value in experiment [2] (library: LOPAC) is inactive: 0.

As for `O=c1[nH]cnc2c1ncn2[C@H]1CC[C@@H](CO)O1` [Didanosine], the neuronal differentiation score in experiment [1] (library: Prestwick) was inactive: 0. Moreover, the “dopaminergic neuron differentiation score” value in experiment [2] (library: Prestwick) was inactive: 0.

On to `C[C@@H]1CC[C@H]2[C@](C)(CO)[C@@H](O)CC[C@]2(C)[C@@]12CC[C@@](CO)(CCO)O2`, for which the neuronal differentiation score in experiment [1] (library: Spectrum) was inactive: 0. Moreover, in experiment [2] (library: Spectrum), the “dopaminergic neuron differentiation score” value is inactive: 0.

Turning to `CC(C)(C)[N+]([O-])=Cc1ccc(S(=O)(=O)O)cc1S(=O)(=O)O`, the neuronal differentiation score in experiment [1] (library: Tocriscreen) is inactive: 0. In experiment [2] (library: Tocriscreen), the “dopaminergic neuron differentiation score” value was inactive: 0.

For `O=C1C(O)=C(O)C(=O)C(O)=C1O` [Tetrahydroxy-1,4-quinone monohydrate], in experiment [1] (library: Prestwick), the neuronal differentiation score is inactive: 0. Further, the “dopaminergic neuron differentiation score” value in experiment [2] (library: Prestwick) was inactive: 0.

`Nc1nc(=O)c2nc(CNc3ccc(C(=O)N[C@@H](CCC(=O)O)C(=O)O)cc3)cnc2[nH]1`: the neuronal differentiation score in experiment [1] (library: Spectrum) is inactive: 0. The “dopaminergic neuron differentiation score” value in experiment [2] (library: Spectrum) is inactive: 0.

Turning to `OC[C@H]1O[C@H]([S-])[C@H](O)[C@@H](O)[C@@H]1O.[Au+]` [Aurothioglucose], the neuronal differentiation score in experiment [1] (library: LOPAC) was inactive: 0. Also, the “dopaminergic neuron differentiation score” value in experiment [2] (library: LOPAC) was inactive: 0.

`O=C1C=C2CC3(O)COc4c(ccc(O)c4O)C3=C2C=C1O` (stereo unspecified): the neuronal differentiation score in experiment [1] (library: Spectrum) was inactive: 0. In addition, in experiment [2] (library: Spectrum), the “dopaminergic neuron differentiation score” value was inactive: 0.

For the molecule `Nc1ccc(C(=O)O)c(O)c1` [4-aminosalicylic acid], in experiment [1] (library: Prestwick), the neuronal differentiation score was inactive: 0. In addition, the “dopaminergic neuron differentiation score” value in experiment [2] (library: Prestwick) was inactive: 0.

On to `CN1CCC(=C2c3ccccc3CCc3sccc32)CC1` [Pizotifen malate], for which the neuronal differentiation score in experiment [1] (library: Prestwick) was inactive: 0. For the same molecule, in experiment [2] (library: Prestwick), the “dopaminergic neuron differentiation score” value was inactive: 0.

As for `O=C1c2ccccc2CCC1CNCCc1ccc(O)cc1` (stereo unspecified) [HEAT hydrochloride], in experiment [1] (library: Tocriscreen), the neuronal differentiation score was inactive: 0. Further, in experiment [2] (library: Tocriscreen), the “dopaminergic neuron differentiation score” value is inactive: 0.

For `CC1=C(/C=C/C(C)=C/C=C/C(C)=C/CO)C(C)(C)CCC1`, the neuronal differentiation score in experiment [1] (library: Spectrum) is inactive: 0. Also, the “dopaminergic neuron differentiation score” value in experiment [2] (library: Spectrum) is inactive: 0.

Turning to `O=C1Cc2cc(CCN3CCN(c4nsc5ccccc45)CC3)c(Cl)cc2N1`, in experiment [1] (library: Spectrum), the neuronal differentiation score was inactive: 0. The “dopaminergic neuron differentiation score” value in experiment [2] (library: Spectrum) was inactive: 0.

Consider `CCN(CC)CCOC(=O)C(c1ccccc1)c1ccccc1` [Adiphenine hydrochloride], for which, in experiment [1] (library: Prestwick), the neuronal differentiation score was inactive: 0. Moreover, the “dopaminergic neuron differentiation score” value in experiment [2] (library: Prestwick) is inactive: 0.

`CC(C)c1ccc(C(=O)c2cccs2)c(SCCCCCCCCN(C)C)n1`: in experiment [1] (library: Tocriscreen), the neuronal differentiation score was inactive: 0. Moreover, the “dopaminergic neuron differentiation score” value in experiment [2] (library: Tocriscreen) was inactive: 0.

For the molecule `CC(=O)c1ccc2c(c1)N(CCCN(C)C)c1ccccc1S2`, the neuronal differentiation score in experiment [1] (library: Spectrum) is inactive: 0. For the same molecule, the “dopaminergic neuron differentiation score” value in experiment [2] (library: Spectrum) was inactive: 0.

With `CCN1/C(=C/C(C)=O)Sc2ccc(OC)cc21`, in experiment [1] (library: LOPAC), the neuronal differentiation score was inactive: 0. Moreover, the “dopaminergic neuron differentiation score” value in experiment [2] (library: LOPAC) is inactive: 0.

For the molecule `CC(=O)C1(O)C(O)C[C@H]2[C@@H]3CCC4CC(O)CC[C@]4(C)[C@H]3CC[C@@]21C` (stereo partly specified) [3,16,17-trihydroxy-17-acetyl-androstane], in experiment [1] (library: Natural), the neuronal differentiation score is inactive: 0. For the same molecule, the “dopaminergic neuron differentiation score” value in experiment [2] (library: Natural) is inactive: 0.

Consider `CCCCC(CC)CN1CN(CC(CC)CCCC)CC(C)(N)C1` (stereo unspecified), for which, in experiment [1] (library: Spectrum), the neuronal differentiation score is inactive: 0. In addition, in experiment [2] (library: Spectrum), the “dopaminergic neuron differentiation score” value was inactive: 0.

For the molecule `O=C1c2ccccc2C(=O)c2c(O)c(O)cc(O)c21`, the neuronal differentiation score in experiment [1] (library: Spectrum) is inactive: 0. For the same molecule, the “dopaminergic neuron differentiation score” value in experiment [2] (library: Spectrum) was active: 3.

Source of the values: the supplement of paper PMC4635364.
